These are yes or no findings as the source states them, for the method shown. For some of these results: Binding seen in cells or lysates may run through a third protein. Some entries that bind do so weakly or less than the wild type. For some of these results: Sequences can lack the tags named with a protein.
B1: His6-tagged AtRH5 DEAD-box helicase (expressed in yeast) (protein, UniProt Q9C551 1-537)
chain: MAGQKQELPVSGEPLAVESPMTNKKKKKSKKNKHTEENHEVEEVPQEVTNGVEEELSNKEKKKKRKREEKESEKNKKKDVPEKKLEAEDLGEGESEQQKVVVTGKGVEEAKYAALKTFAESNLPENVLDCCKTFEKPSPIQSHTWPFLLDGRDLIGIAKTGSGKTLAFGIPAIMHVLKKNKKIGGGSKKVNPTCLVLSPTRELAVQISDVLREAGEPCGLKSICVYGGSSKGPQISAIRSGVDIVIGTPGRLRDLIESNVLRLSDVSFVVLDEADRMLDMGFEEPVRFILSNTNKVRQMVMFSATWPLDVHKLAQEFMDPNPIKVIIGSVDLAANHDVMQIIEVLDERARDQRLIALLEKYHKSQKNRVLVFALYKVEAERLERFLQQRGWKAVSIHGNKAQSERTRSLSLFKEGSCPLLVATDVAARGLDIPDVEVVINYTFPLTTEDYVHRIGRTGRAGKKGVAHTFFTPLNKGLAGELVNVLREAGQVVPADLLKFGTHVKKKESKLYGAHFKEIAADAPKATKITFDNSDDED
B2: AtRH5, split-ubiquitin prey (protein, UniProt Q9C551 1-537)
chain: MAGQKQELPVSGEPLAVESPMTNKKKKKSKKNKHTEENHEVEEVPQEVTNGVEEELSNKEKKKKRKREEKESEKNKKKDVPEKKLEAEDLGEGESEQQKVVVTGKGVEEAKYAALKTFAESNLPENVLDCCKTFEKPSPIQSHTWPFLLDGRDLIGIAKTGSGKTLAFGIPAIMHVLKKNKKIGGGSKKVNPTCLVLSPTRELAVQISDVLREAGEPCGLKSICVYGGSSKGPQISAIRSGVDIVIGTPGRLRDLIESNVLRLSDVSFVVLDEADRMLDMGFEEPVRFILSNTNKVRQMVMFSATWPLDVHKLAQEFMDPNPIKVIIGSVDLAANHDVMQIIEVLDERARDQRLIALLEKYHKSQKNRVLVFALYKVEAERLERFLQQRGWKAVSIHGNKAQSERTRSLSLFKEGSCPLLVATDVAARGLDIPDVEVVINYTFPLTTEDYVHRIGRTGRAGKKGVAHTFFTPLNKGLAGELVNVLREAGQVVPADLLKFGTHVKKKESKLYGAHFKEIAADAPKATKITFDNSDDED
B3: Fal1p DEAD-box helicase, split-ubiquitin prey (protein, UniProt Q12099 1-399)
chain: MSFDREEDQKLKFKTSKKLKVSSTFESMNLKDDLLRGIYSYGFEAPSSIQSRAITQIISGKDVIAQAQSGTGKTATFTIGLLQAIDLRKKDLQALILSPTRELASQIGQVVKNLGDYMNVNAFAITGGKTLKDDLKKMQKHGCQAVSGTPGRVLDMIKKQMLQTRNVQMLVLDEADELLSETLGFKQQIYDIFAKLPKNCQVVVVSATMNKDILEVTRKFMNDPVKILVKRDEISLEGIKQYVVNVDKEEWKFDTLCDIYDSLTITQCVIFCNTKKKVDWLSQRLIQSNFAVVSMHGDMKQEERDKVMNDFRTGHSRVLISTDVWARGIDVQQVSLVINYDLPEIIENYIHRIGRSGRFGRKGVAINFITKADLAKLREIEKFYSIKINPMPANFAELS

The chains behind the UniProt entries cited, without tags or fusion partners. Residues count along the entry.
UniProt P15187, residues 1-296: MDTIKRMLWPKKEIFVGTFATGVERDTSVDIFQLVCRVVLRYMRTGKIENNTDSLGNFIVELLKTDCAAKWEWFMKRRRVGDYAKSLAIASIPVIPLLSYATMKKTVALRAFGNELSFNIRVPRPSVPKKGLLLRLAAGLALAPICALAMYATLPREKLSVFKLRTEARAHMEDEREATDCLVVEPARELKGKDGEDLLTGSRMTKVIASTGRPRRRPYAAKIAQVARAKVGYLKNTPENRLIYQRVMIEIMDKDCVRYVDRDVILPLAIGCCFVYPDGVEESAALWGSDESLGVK
UniProt P20447: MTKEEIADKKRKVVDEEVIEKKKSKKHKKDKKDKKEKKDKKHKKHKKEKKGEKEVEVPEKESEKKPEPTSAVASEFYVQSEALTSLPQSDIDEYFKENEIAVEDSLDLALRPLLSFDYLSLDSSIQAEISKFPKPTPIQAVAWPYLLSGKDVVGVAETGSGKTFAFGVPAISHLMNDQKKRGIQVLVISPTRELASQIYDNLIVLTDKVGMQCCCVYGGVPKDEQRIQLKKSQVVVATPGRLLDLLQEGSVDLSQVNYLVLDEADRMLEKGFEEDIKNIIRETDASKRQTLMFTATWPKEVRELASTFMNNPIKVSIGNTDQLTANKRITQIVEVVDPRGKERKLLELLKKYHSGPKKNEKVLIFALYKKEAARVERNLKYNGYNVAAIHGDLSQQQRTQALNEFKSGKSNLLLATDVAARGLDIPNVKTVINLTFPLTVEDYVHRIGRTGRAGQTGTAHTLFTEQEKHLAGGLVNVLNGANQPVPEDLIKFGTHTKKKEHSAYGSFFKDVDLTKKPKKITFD

Columns and labels:
[1] = target: p33 replication protein, split-ubiquitin bait (cucumber necrosis virus (CNV)) (UniProt P15187); assay: two-hybrid; membrane-based split-ubiquitin yeast two-hybrid (Dualmembrane kit3), strain NMY51; p33 as bait, helicases as prey; growth on Trp-/Leu-/His- plates, 10-fold serial dilutions
[2] = target: FLAG-tagged p33 replication protein (cucumber necrosis virus (CNV)) (UniProt P15187); assay: co-IP; FLAG-p33 and FLAG-p92 affinity-purified on anti-FLAG M2 agarose from solubilised membrane fraction of yeast co-expressing the His6-helicase, with or without the TBSV repRNA; Western blot with anti-His antibody

Row | Molecule | binding [1] | binding [2]
1 | Dbp3p DEAD-box helicase, split-ubiquitin prey (from UniProt P20447 1-523) | binds | 
2 | B1 |  | binds
3 | B2 | binds | 
4 | B3 | binds | 
